Data as given in patent US11000514B2, “Antifungal compounds” (Duke University, priority 2014, dated 2021).
Some of these results come from one statement about several compounds together.

Test system: IL2
Experiment: IL2 IC50 determination
Type: cell-based
Details: range in words

| Compound | IL2 IC50 |
| --- | --- |
| CO[C@H]1C[C@@H](C)C/C(C)=C/[C@@H](C/C=C/c2ccc(C(=O)O)cc2)C(=O)C[C@H](O)[C@@H](C)[C@@H](/C(C)=C/[C@@H]2CC[C@@H](O)[C@H](OC)C2)OC(=O)[C@@H]2CCCCN2C(=O)C(=O)[C@]2(O)O[C@H]1[C@@H](OC)C[C@H]2C [Compound 2] | nanomolar |
| CCCC/C=C/C[C@@H]1/C=C(\C)C[C@H](C)C[C@H](OC)[C@H]2O[C@@](O)(C(=O)C(=O)N3CCCC[C@H]3C(=O)O[C@H](/C(C)=C/[C@@H]3CC[C@@H](O)[C@H](OC)C3)[C@H](C)[C@@H](O)CC1=O)[C@H](C)C[C@@H]2OC [Compound 3] | nanomolar |
| CO[C@H]1C[C@@H](C)C/C(C)=C/[C@@H](C/C=C/CCCC(=O)O)C(=O)C[C@H](O)[C@@H](C)[C@@H](/C(C)=C/[C@@H]2CC[C@@H](O)[C@H](OC)C2)OC(=O)[C@@H]2CCCCN2C(=O)C(=O)[C@]2(O)O[C@H]1[C@@H](OC)C[C@H]2C [Compound 8] | nanomolar |
| CO[C@H]1C[C@@H](C)C/C(C)=C/[C@@H](C/C=C/C2CCCCC2)C(=O)C[C@H](O)[C@@H](C)[C@@H](/C(C)=C/[C@@H]2CC[C@@H](O)[C@H](OC)C2)OC(=O)[C@@H]2CCCCN2C(=O)C(=O)[C@]2(O)O[C@H]1[C@@H](OC)C[C@H]2C [Compound 18] | nanomolar |
| CO[C@H]1C[C@@H](C)C/C(C)=C/[C@@H](C/C=C/CC2CCCC2)C(=O)C[C@H](O)[C@@H](C)[C@@H](/C(C)=C/[C@@H]2CC[C@@H](O)[C@H](OC)C2)OC(=O)[C@@H]2CCCCN2C(=O)C(=O)[C@]2(O)O[C@H]1[C@@H](OC)C[C@H]2C [Compound 23] | nanomolar |
| CO[C@H]1C[C@@H](C)C/C(C)=C/[C@@H](C/C=C/CC2CCCCC2)C(=O)C[C@H](O)[C@@H](C)[C@@H](/C(C)=C/[C@@H]2CC[C@@H](O)[C@H](OC)C2)OC(=O)[C@@H]2CCCCN2C(=O)C(=O)[C@]2(O)O[C@H]1[C@@H](OC)C[C@H]2C [Compound 24] | nanomolar |
| CO[C@H]1C[C@@H](C)C/C(C)=C/[C@@H](C/C=C/CCCCCCCCC(=O)O)C(=O)C[C@H](O)[C@@H](C)[C@@H](/C(C)=C/[C@@H]2CC[C@@H](O)[C@H](OC)C2)OC(=O)[C@@H]2CCCCN2C(=O)C(=O)[C@]2(O)O[C@H]1[C@@H](OC)C[C@H]2C [Compound 31] | nanomolar |
| CO[C@H]1C[C@@H](C)C/C(C)=C/[C@@H](C/C=C/C(=O)OCCCCCCCC(C)C)C(=O)C[C@H](O)[C@@H](C)[C@@H](/C(C)=C/[C@@H]2CC[C@@H](O)[C@H](OC)C2)OC(=O)[C@@H]2CCCCN2C(=O)C(=O)[C@]2(O)O[C@H]1[C@@H](OC)C[C@H]2C [Compound 37] | nanomolar |
| CO[C@H]1C[C@@H](C)C/C(C)=C/[C@@H](C/C=C/CC(C)C)C(=O)C[C@H](O)[C@@H](C)[C@@H](/C(C)=C/[C@@H]2CC[C@@H](O)[C@H](OC)C2)OC(=O)[C@@H]2CCCCN2C(=O)C(=O)[C@]2(O)O[C@H]1[C@@H](OC)C[C@H]2C [Compound 39] | nanomolar |
| CO[C@H]1C[C@@H](C)C/C(C)=C/[C@@H](C/C=C/CC(C)(C)C)C(=O)C[C@H](O)[C@@H](C)[C@@H](/C(C)=C/[C@@H]2CC[C@@H](O)[C@H](OC)C2)OC(=O)[C@@H]2CCCCN2C(=O)C(=O)[C@]2(O)O[C@H]1[C@@H](OC)C[C@H]2C [Compound 40] | nanomolar |
| C=CC[C@@H]1/C=C(\C)C[C@H](C)C[C@H](OC)[C@H]2O[C@@](O)(C(=O)C(=O)N3CCCC[C@H]3C(=O)O[C@H](/C(C)=C/[C@@H]3CCC(=O)[C@H](OC)C3)[C@H](C)[C@@H](O)CC1=O)[C@H](C)C[C@@H]2OC [Compound 42] | subnanomolar |
| CC[C@@H]1/C=C(\C)[C@@H](O)[C@H](C)C[C@H](OC)[C@H]2O[C@@](O)(C(=O)C(=O)N3CCCC[C@H]3C(=O)O[C@H](/C(C)=C/[C@@H]3CC[C@@H](O)[C@H](OC)C3)[C@H](C)[C@@H](O)CC1=O)[C@H](C)C[C@@H]2OC [Compound 44] | nanomolar |
| CO[C@H]1C[C@@H](C)C/C(C)=C/[C@@H](C/C=C/C(=O)OCC(O)COc2ccccc2)C(=O)C[C@H](O)[C@@H](C)[C@@H](/C(C)=C/[C@@H]2CC[C@@H](O)[C@H](OC)C2)OC(=O)[C@@H]2CCCCN2C(=O)C(=O)[C@]2(O)O[C@H]1[C@@H](OC)C[C@H]2C (some centres unmarked) [Compound 51] | subnanomolar |
| CO[C@H]1C[C@@H](C)C/C(C)=C/[C@@H](C/C=C/C(=O)OC2CC3CCC2(C)C3(C)C)C(=O)C[C@H](O)[C@@H](C)[C@@H](/C(C)=C/[C@@H]2CC[C@@H](O)[C@H](OC)C2)OC(=O)[C@@H]2CCCCN2C(=O)C(=O)[C@]2(O)O[C@H]1[C@@H](OC)C[C@H]2C (some centres unmarked) [Compound 52] | nanomolar |
| CO[C@H]1C[C@@H](C)C/C(C)=C/[C@@H](C/C=C/C(=O)OCC(C)C)C(=O)C[C@H](O)[C@@H](C)[C@@H](/C(C)=C/[C@@H]2CC[C@@H](O)[C@H](OC)C2)OC(=O)[C@@H]2CCCCN2C(=O)C(=O)[C@]2(O)O[C@H]1[C@@H](OC)C[C@H]2C [Compound 53] | micromolar |
| CO[C@H]1C[C@@H](C)C/C(C)=C/[C@@H](C/C=C/C(=O)OCCO)C(=O)C[C@H](O)[C@@H](C)[C@@H](/C(C)=C/[C@@H]2CC[C@@H](O)[C@H](OC)C2)OC(=O)[C@@H]2CCCCN2C(=O)C(=O)[C@]2(O)O[C@H]1[C@@H](OC)C[C@H]2C [Compound 55] | micromolar |

| Compound | IL2 IC50 |
| --- | --- |
| CO[C@H]1C[C@@H](C)C/C(C)=C/[C@@H](C/C=C/C(=O)OCCCCO)C(=O)C[C@H](O)[C@@H](C)[C@@H](/C(C)=C/[C@@H]2CC[C@@H](O)[C@H](OC)C2)OC(=O)[C@@H]2CCCCN2C(=O)C(=O)[C@]2(O)O[C@H]1[C@@H](OC)C[C@H]2C [Compound 56] | micromolar |
| CCCCCCOC(=O)/C=C/C[C@@H]1/C=C(\C)C[C@H](C)C[C@H](OC)[C@H]2O[C@@](O)(C(=O)C(=O)N3CCCC[C@H]3C(=O)O[C@H](/C(C)=C/[C@@H]3CC[C@@H](O)[C@H](OC)C3)[C@H](C)[C@@H](O)CC1=O)[C@H](C)C[C@@H]2OC [Compound 57] | micromolar |
| CC[C@@H]1/C=C(\C)C[C@H](C)C[C@H](OC)[C@H]2O[C@@](O)(C(=O)C(=O)N3CCCC[C@H]3C(=O)O[C@H](/C(C)=C/[C@@H]3CC[C@@H](OC(=O)CC(=O)O)[C@H](OC)C3)[C@H](C)CCC1=O)[C@H](C)C[C@@H]2OC [Compound 60] | nanomolar |
| C/C=C/C[C@@H]1/C=C(\C)C[C@H](C)C[C@H](OC)[C@H]2O[C@@](O)(C(=O)C(=O)N3CCCC[C@H]3C(=O)O[C@H](/C(C)=C/[C@@H]3CC[C@@H](O)[C@H](OC)C3)[C@H](C)[C@@H](O)CC1=O)[C@H](C)C[C@@H]2OC [Compound 61] | subnanomolar |
| CC/C=C/C[C@@H]1/C=C(\C)C[C@H](C)C[C@H](OC)[C@H]2O[C@@](O)(C(=O)C(=O)N3CCCC[C@H]3C(=O)O[C@H](/C(C)=C/[C@@H]3CC[C@@H](O)[C@H](OC)C3)[C@H](C)[C@@H](O)CC1=O)[C@H](C)C[C@@H]2OC [Compound 62] | nanomolar |
| CCCCC/C=C/C[C@@H]1/C=C(\C)C[C@H](C)C[C@H](OC)[C@H]2O[C@@](O)(C(=O)C(=O)N3CCCC[C@H]3C(=O)O[C@H](/C(C)=C/[C@@H]3CC[C@@H](O)[C@H](OC)C3)[C@H](C)[C@@H](O)CC1=O)[C@H](C)C[C@@H]2OC [Compound 63] | nanomolar |
| CCC/C=C/C[C@@H]1/C=C(\C)C[C@H](C)C[C@H](OC)[C@H]2O[C@@](O)(C(=O)C(=O)N3CCCC[C@H]3C(=O)O[C@H](/C(C)=C/[C@@H]3CCC(=O)[C@H](OC)C3)[C@H](C)[C@@H](O)CC1=O)[C@H](C)C[C@@H]2OC [Compound 64] | nanomolar |
| CCCC/C=C/C[C@@H]1/C=C(\C)C[C@H](C)C[C@H](OC)[C@H]2O[C@@](O)(C(=O)C(=O)N3CCCC[C@H]3C(=O)O[C@H](/C(C)=C/[C@@H]3CCC(=O)[C@H](OC)C3)[C@H](C)[C@@H](O)CC1=O)[C@H](C)C[C@@H]2OC [Compound 65] | nanomolar |
| CCCCC/C=C/C[C@@H]1/C=C(\C)C[C@H](C)C[C@H](OC)[C@H]2O[C@@](O)(C(=O)C(=O)N3CCCC[C@H]3C(=O)O[C@H](/C(C)=C/[C@@H]3CCC(=O)[C@H](OC)C3)[C@H](C)[C@@H](O)CC1=O)[C@H](C)C[C@@H]2OC [Compound 66] | nanomolar |
| CO[C@H]1C[C@@H](C)C/C(C)=C/[C@@H](C/C=C/CO)C(=O)C[C@H](O)[C@@H](C)[C@@H](/C(C)=C/[C@@H]2CC[C@@H](O)[C@H](OC)C2)OC(=O)[C@@H]2CCCCN2C(=O)C(=O)[C@]2(O)O[C@H]1[C@@H](OC)C[C@H]2C [Compound 67] | micromolar |
| CCOC(=O)/C=C/C[C@@H]1/C=C(\C)C[C@H](C)C[C@H](OC)[C@H]2O[C@@](O)(C(=O)C(=O)N3CCCC[C@H]3C(=O)O[C@H](/C(C)=C/[C@@H]3CC[C@@H](O)[C@H](OC)C3)[C@H](C)[C@@H](O)CC1=O)[C@H](C)C[C@@H]2OC [Compound 68] | nanomolar |
| CO[C@H]1C[C@@H](C)C/C(C)=C/[C@@H](C/C=C/C(C)=O)C(=O)C[C@H](O)[C@@H](C)[C@@H](/C(C)=C/[C@@H]2CC[C@@H](O)[C@H](OC)C2)OC(=O)[C@@H]2CCCCN2C(=O)C(=O)[C@]2(O)O[C@H]1[C@@H](OC)C[C@H]2C [Compound 69] | nanomolar |
| CCS(=O)(=O)/C=C/C[C@@H]1/C=C(\C)C[C@H](C)C[C@H](OC)[C@H]2O[C@@](O)(C(=O)C(=O)N3CCCC[C@H]3C(=O)O[C@H](/C(C)=C/[C@@H]3CC[C@@H](O)[C@H](OC)C3)[C@H](C)[C@@H](O)CC1=O)[C@H](C)C[C@@H]2OC [Compound 70] | micromolar |
| CO[C@H]1C[C@@H](C)C/C(C)=C/[C@@H](C/C=C/COc2ccccc2)C(=O)C[C@H](O)[C@@H](C)[C@@H](/C(C)=C/[C@@H]2CC[C@@H](O)[C@H](OC)C2)OC(=O)[C@@H]2CCCCN2C(=O)C(=O)[C@]2(O)O[C@H]1[C@@H](OC)C[C@H]2C [Compound 71] | nanomolar |
| CO[C@H]1C[C@@H](C)C/C(C)=C/[C@@H](C/C=C/COc2ccccc2)C(=O)C[C@H](O)[C@@H](C)[C@@H](/C(C)=C/[C@@H]2CCC(=O)[C@H](OC)C2)OC(=O)[C@@H]2CCCCN2C(=O)C(=O)[C@]2(O)O[C@H]1[C@@H](OC)C[C@H]2C [Compound 72] | nanomolar |
| CC[C@@H]1/C=C(\C)C(O)[C@H](C)C[C@H](OC)[C@H]2O[C@@](O)(C(=O)C(=O)N3CCCC[C@H]3C(=O)O[C@H](/C(C)=C/[C@@H]3CC[C@@H](O)[C@H](OC)C3)[C@H](C)CCC1=O)[C@H](C)C[C@@H]2OC (some centres unmarked) [Compound 73] | micromolar |
